Consider two molecules from publication doi:10.1101/815282.

Amino acid sequences for entries named in this document (tags omitted). Residues count along the entry.
UniProt D0NMF6, residues 21-241: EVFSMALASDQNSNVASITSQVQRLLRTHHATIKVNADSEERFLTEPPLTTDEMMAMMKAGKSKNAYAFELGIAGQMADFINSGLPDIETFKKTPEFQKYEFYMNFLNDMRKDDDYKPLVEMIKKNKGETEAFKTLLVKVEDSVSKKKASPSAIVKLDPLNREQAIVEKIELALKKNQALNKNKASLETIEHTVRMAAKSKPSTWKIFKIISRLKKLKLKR

These are yes or no findings as the source states them, for the method shown. Binding seen in cells or lysates may run through a third protein. Some binding calls cover weakened binding; strength is not graded here. For some assays here: Where a sequence is shown, tags or fusion partners need not be part of it.

The target in test [1] is Phytophthora infestans RXLR effector SFI5 (BiFC fusion) (Phytophthora infestans) (UniProt D0NMF6). The test is described as follows: split reporter.
Test [2] deals with T1, BIR2 (BiFC fusion) (Arabidopsis thaliana) (UniProt Q9LSI9).
T1 sequence: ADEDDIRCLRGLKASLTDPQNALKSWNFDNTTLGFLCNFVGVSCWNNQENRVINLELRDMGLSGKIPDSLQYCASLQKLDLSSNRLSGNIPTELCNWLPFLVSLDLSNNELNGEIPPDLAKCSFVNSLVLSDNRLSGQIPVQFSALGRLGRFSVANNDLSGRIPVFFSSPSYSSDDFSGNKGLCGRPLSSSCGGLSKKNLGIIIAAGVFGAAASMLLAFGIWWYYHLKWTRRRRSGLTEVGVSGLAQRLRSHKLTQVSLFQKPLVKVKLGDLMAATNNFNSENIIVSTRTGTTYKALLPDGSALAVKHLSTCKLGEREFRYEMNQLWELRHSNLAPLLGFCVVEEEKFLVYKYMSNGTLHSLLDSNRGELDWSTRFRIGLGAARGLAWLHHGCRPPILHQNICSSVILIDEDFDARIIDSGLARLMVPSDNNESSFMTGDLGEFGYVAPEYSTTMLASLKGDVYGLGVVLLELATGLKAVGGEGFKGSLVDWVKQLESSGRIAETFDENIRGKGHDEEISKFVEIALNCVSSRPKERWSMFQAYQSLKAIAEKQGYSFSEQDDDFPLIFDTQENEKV
The test is described as follows: split reporter.

As for “Arabidopsis Calmodulin AtCaM1 (BiFC fusion) (from UniProt P0DH95 1-149)”, the binding entry in test [1] is recorded as “binds”.

B1: PLDγ1 (BiFC fusion) (enzyme, UniProt Q9T053 1-858)
chain: MAYHPAYTETMSMGGGSSHGGGQQYVPFATSSGSLRVELLHGNLDIWVKEAKHLPNMDGFHNRLGGMLSGLGRKKVEGEKSSKITSDPYVTVSISGAVIGRTFVISNSENPVWMQHFDVPVAHSAAEVHFVVKDSDIIGSQIMGAVGIPTEQLCSGNRIEGLFPILNSSGKPCKQGAVLGLSIQYTPMERMRLYQMGVGSGNECVGVPGTYFPLRKGGRVTLYQDAHVDDGTLPSVHLDGGIQYRHGKCWEDMADAIRQARRLIYITGWSVFHPVRLVRRTNDPTEGTLGELLKVKSQEGVRVLVLVWDDPTSRSLLGFKTQGVMNTSDEETRRFFKHSSVQVLLCPRSGGKGHSFIKKSEVGTIYTHHQKTVIVDAEAAQNRRKIVAFVGGLDLCNGRFDTPKHPLFRTLKTLHKDDFHNPNFVTTADDGPREPWHDLHSKIDGPAAYDVLANFEERWMKASKPRGIGKLKSSSDDSLLRIDRIPDIVGLSEASSANDNDPESWHVQVFRSIDSSSVKGFPKDPKEATGRNLLCGKNILIDMSIHAAYVKAIRSAQHFIYIENQYFLGSSFNWDSNKDLGANNLIPMEIALKIANKIRAREKFAAYIVIPMWPEGAPTSNPIQRILYWQHKTMQMMYQTIYKALVEVGLDSQFEPQDFLNFFCLGTREVPVGTVSVYNSPRKPPQPNANANAAQVQALKSRRFMIYVHSKGMVVDDEFVLIGSANINQRSLEGTRDTEIAMGGYQPHYSWAMKGSRPHGQIFGYRMSLWAEHLGFLEQGFEEPENMECVRRVRQLSELNWRQYAAEEVTEMSGHLLKYPVQVDRTGKVSSLPGCETFPDLGGKIIGSFLALQENLTI
As for B1, the binding entry in test [2] was “no binding”.
